{"sequences": {"note": "Protein sequences, listed by entry. Tags and fused reporters are not part of them. Lines headed by an entry give the natural chain unless they say otherwise; changes in a name come on top.", "UniProt P61586": "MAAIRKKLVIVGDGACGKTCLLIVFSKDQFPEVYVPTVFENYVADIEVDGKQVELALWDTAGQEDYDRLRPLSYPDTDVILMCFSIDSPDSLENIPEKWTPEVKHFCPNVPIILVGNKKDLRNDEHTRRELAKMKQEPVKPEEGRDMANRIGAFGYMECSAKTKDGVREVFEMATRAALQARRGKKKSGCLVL"}, "source": "patent US20200069684A1", "key": {"[1]": {"target": "T1, VAV1 protein (Homo sapiens (Human)) (UniProt P15498)", "T1 sequence": "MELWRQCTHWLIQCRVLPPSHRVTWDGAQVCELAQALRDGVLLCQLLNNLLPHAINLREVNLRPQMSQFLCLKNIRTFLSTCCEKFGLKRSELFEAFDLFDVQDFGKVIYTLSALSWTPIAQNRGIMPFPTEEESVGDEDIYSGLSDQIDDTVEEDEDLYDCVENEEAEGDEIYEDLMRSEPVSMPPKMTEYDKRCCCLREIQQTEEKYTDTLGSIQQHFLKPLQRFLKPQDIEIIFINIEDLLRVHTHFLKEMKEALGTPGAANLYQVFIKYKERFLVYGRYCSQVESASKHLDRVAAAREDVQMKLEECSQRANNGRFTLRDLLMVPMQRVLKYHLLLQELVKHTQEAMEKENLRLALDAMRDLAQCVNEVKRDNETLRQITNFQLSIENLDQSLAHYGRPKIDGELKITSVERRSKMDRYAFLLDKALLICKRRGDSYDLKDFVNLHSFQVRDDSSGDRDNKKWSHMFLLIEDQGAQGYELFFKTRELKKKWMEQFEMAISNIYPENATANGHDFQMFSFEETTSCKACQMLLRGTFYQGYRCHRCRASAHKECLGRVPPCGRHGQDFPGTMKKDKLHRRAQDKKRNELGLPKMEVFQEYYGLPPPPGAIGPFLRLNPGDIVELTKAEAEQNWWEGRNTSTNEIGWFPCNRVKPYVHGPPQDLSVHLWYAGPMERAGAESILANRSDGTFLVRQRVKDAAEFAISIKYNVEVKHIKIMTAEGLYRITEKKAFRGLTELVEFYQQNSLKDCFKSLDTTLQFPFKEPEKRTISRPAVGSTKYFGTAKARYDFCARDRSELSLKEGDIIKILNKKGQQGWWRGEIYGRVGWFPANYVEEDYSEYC", "experiment": "co-immunoprecipitation with anti-flagM2 antibody from Jurkat cell lysate, Western blot with anti-VAV1 antibody"}, "[2]": {"target": "T1, VAV1 protein (Homo sapiens (Human))", "experiment": "co-immunoprecipitation with anti-flagM2 antibody from SU9T01 cell lysate, Western blot with anti-VAV1 antibody"}}, "note": "These are yes or no findings as the source states them, for the method shown. Binding seen in cells or lysates may run through a third protein. Some binding calls cover weakened binding; strength is not graded here."}
{"substance": "G17V RHOA mutant (from UniProt P61586 1-190)", "values": [{"measurement": "binding", "setting": "[1]", "result": "binds"}, {"measurement": "binding", "setting": "[2]", "result": "binds"}]}
